Results deposited as PubChem BioAssay AID1259308 (NCATS, 2017).
Shown is a random part of about 59,000 deposited reagents. About 1,510 of them (2.6%) were called active. 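Calls use total luciferase alone and ignore viability, so some active siRNAs may act by altering cell number.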 The numbers tell different reagents against one gene apart. Not all columns of the deposit are shown. Reagent sequences are not shown.

Purpose: 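Candidate targets for better recombinant protein yield in mammalian cells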 (primary screen)
Cells: human HEK293 embryonic kidney cells stably expressing firefly luciferase (HEK-CMV-Luc2-Hygro)
Knock-down reagent: single siRNA against human genes, 0.8 pmol siRNA per well
Duration: 72 h
Measurement: 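Reporter luminescence and viable-cell signal on separate replicate plates, given as percent of non-targeting control and median/MAD z-scores, plus per-cell luciferase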
Direction: total luciferase, z-score and total luciferase, % of control: higher = more reporter protein produced; luciferase per cell, z-score: higher = more reporter output per viable cell
Rule for the call: 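Active when the median/MAD z-score for overall luciferase is greater than 3; a gene was taken forward for validation with new siRNAs if at least two of its three siRNAs passed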
Calls: active = raised luciferase; inactive = no rise

gene | reagent | total luciferase, z-score | total luciferase, % of control | luciferase per cell, z-score | activity call
PDE8A | 1 | -0.217 | 77.6 | -0.157 | inactive
PDE8A | 2 | 2.53 | 132 | 2.51 | inactive
PDE8A | 3 | 0.287 | 87.6 | 0.486 | inactive
TCFL5 | 1 | -0.277 | 76.4 | -0.533 | inactive
TCFL5 | 2 | 1.21 | 106 | 2.97 | inactive
TCFL5 | 3 | -1.38 | 54.5 | -1.57 | inactive
ADRM1 | 1 | -0.98 | 62.4 | -1.11 | inactive
ADRM1 | 2 | -0.0109 | 81.7 | -0.0949 | inactive
ADRM1 | 3 | 0.116 | 84.2 | 0.43 | inactive
FANCA | 1 | 1.35 | 109 | 0.627 | inactive
FANCA | 2 | -0.216 | 77.6 | -0.168 | inactive
FANCA | 3 | 2.55 | 133 | 1.91 | inactive

2 neighbouring entries from above:
gene | reagent | total luciferase, z-score | total luciferase, % of control | luciferase per cell, z-score | activity call
ADRM1 | 3 | 0.116 | 84.2 | 0.43 | inactive
FANCA | 1 | 1.35 | 109 | 0.627 | inactive

Next entries follow:
gene | reagent | total luciferase, z-score | total luciferase, % of control | luciferase per cell, z-score | activity call
SUDS3 | 1 | -0.115 | 79.6 | -1.2 | inactive
SUDS3 | 2 | -1.11 | 59.8 | -2.03 | inactive
SUDS3 | 3 | -1.09 | 60.2 | -1.53 | inactive
RHEX | 1 | -0.26 | 76.7 | 0.575 | inactive
RHEX | 2 | 0.721 | 96.2 | 0.576 | inactive
RHEX | 3 | 2.96 | 141 | 1.65 | inactive
ZNF785 | 1 | -0.618 | 69.6 | -0.629 | inactive
ZNF785 | 2 | 0.775 | 97.3 | 0.551 | inactive
ZNF785 | 3 | 0.923 | 100 | -0.22 | inactive
PPFIA4 | 1 | -1.6 | 50.1 | -1.31 | inactive
PPFIA4 | 2 | -1.07 | 60.7 | -1.75 | inactive
PPFIA4 | 3 | 0.558 | 93 | -0.2 | inactive
